The assay has as its system helical strips of pulmonary artery of guinea pigs. Nature of the assay: calcium-antagonistic action: inhibition of CaCl2-induced contraction of potassium-depolarised helical strips of pulmonary artery. In kind it is cell-based. The note with it: Cavia porcellus; guinea pig pulmonary artery strips, calcium-free Tyrode's solution, 40 mmol potassium, 0.5 mmol CaCl2; mean value from 4 to 6 strips; read-out: IC50 (concentration of the test substance which inhibits contraction by 50%). The method, then:
This entailed helical strips of pulmonary artery of guinea pigs being equilibrated in calcium-free Tyrode's solution and depolarised with 40 mmol of potassium. Addition of 0.5 mmol of CaCl2 then initiates contraction. The relaxant action of the test substance is determined by cumulative addition of concentrations increasing in steps of 1/2 log 10.

In the case of `COC(=O)C1=C(C)NC(C)=C(C(=O)OC)C1c1ccccc1[N+](=O)[O-]` [nifedipine, dimethyl 1,4-dihydro-2,6-dimethyl-4-(2-nitrophenyl)pyridine-3,5-dicarboxylate, reference compound], the IC50 amounted to 3 nM.
